The text below walks through data of publication PMC8685902, “Perception of structurally distinct effectors by the integrated WRKY domain of a plant immune receptor”.

For this experiment, the target named is RRS1-R^WRKY+83 with C-terminal 6xHis/3xFLAG tag (Arabidopsis). As to the kind of experiment: co-IP; transient coexpression in N. benthamiana; RRS1-R^WRKY+83 (6xHis/3xFLAG) precipitated with anti-FLAG magnetic beads, AvrRps4 variants (4xmyc) detected by blot.

No constants are given. Whether binding was seen depends on the method and setting. In cells and extracts the contact can be indirect. A result given as binding can be weak or reduced; the word gives no strength. Sequences can lack the tags named with a protein.

B1: full-length AvrRps4 with C-terminal 4xmyc tag (wild type) (protein, UniProt Q52432 1-220)
chain: MTRISTSSVNSSFSYSAPAEEAQNRVSSAPTNSSPPGTTTAVAQASEGQKKPGAVLSMHAQRLRQLCESSSHQYRQNALLAKSFDAQRLDINTQAGPSNSPHLNALNKLQQRDFKPAAGGLEIPFTPKSLLGGGKRVYQIGSSSRDVQVCPRGAGAALRQEIEDKQLMVNNLTDELQDAIDEANPAEIANTSQQLRHARADLADLQRRFAVLRNEDRRIN
As for B1, the binding result is recorded as “binds”.
